From the supplement of paper PMC10849652
The other results are listed elsewhere or left out.

Amino acid sequences for entries named in this document (tags omitted). A change or cut given only in a name is not applied to a line headed by its entry.
UniProt Q96QG7: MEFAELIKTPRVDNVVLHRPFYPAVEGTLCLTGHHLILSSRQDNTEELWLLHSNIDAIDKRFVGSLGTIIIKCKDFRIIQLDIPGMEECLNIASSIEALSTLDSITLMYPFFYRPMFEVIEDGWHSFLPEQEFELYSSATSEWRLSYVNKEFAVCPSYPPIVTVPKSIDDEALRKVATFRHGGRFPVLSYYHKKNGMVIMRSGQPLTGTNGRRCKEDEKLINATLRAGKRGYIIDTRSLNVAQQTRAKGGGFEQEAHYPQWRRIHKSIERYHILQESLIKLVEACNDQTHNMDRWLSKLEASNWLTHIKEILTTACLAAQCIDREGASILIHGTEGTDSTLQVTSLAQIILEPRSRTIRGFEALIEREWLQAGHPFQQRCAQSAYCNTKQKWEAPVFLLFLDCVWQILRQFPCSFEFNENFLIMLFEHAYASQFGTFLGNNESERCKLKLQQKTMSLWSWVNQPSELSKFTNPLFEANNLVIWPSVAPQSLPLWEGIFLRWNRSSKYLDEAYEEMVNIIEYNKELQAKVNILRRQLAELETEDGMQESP
UniProt P46199: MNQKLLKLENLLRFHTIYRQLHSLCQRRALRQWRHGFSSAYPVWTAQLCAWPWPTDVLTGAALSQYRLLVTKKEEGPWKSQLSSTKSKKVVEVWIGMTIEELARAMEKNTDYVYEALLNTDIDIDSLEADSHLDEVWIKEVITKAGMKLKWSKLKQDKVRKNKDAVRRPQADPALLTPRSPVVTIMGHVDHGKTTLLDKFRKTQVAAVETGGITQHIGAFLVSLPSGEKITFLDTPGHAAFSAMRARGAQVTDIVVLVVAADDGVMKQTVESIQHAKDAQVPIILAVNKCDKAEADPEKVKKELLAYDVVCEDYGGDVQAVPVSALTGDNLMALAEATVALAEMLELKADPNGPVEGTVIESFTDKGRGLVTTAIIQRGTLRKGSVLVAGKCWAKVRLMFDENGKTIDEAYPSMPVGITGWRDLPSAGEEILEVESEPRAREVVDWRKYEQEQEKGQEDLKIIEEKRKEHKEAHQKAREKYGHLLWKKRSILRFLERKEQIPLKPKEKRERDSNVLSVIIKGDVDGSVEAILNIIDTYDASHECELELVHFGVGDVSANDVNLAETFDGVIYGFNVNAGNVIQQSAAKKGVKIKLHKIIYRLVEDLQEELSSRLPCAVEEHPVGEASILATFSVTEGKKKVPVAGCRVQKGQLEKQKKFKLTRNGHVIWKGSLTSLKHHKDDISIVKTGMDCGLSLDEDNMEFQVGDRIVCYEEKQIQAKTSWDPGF
UniProt Q9HD23: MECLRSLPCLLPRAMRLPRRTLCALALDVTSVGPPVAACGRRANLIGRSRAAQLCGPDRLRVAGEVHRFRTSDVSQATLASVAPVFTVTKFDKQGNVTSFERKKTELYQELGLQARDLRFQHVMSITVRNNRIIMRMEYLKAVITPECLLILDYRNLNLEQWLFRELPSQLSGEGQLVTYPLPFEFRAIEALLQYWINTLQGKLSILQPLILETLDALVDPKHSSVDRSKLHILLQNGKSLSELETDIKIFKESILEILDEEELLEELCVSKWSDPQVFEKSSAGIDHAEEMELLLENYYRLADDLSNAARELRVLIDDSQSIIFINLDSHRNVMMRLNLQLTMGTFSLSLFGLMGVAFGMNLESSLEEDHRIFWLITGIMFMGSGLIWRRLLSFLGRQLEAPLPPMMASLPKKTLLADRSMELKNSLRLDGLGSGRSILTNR
UniProt Q13496: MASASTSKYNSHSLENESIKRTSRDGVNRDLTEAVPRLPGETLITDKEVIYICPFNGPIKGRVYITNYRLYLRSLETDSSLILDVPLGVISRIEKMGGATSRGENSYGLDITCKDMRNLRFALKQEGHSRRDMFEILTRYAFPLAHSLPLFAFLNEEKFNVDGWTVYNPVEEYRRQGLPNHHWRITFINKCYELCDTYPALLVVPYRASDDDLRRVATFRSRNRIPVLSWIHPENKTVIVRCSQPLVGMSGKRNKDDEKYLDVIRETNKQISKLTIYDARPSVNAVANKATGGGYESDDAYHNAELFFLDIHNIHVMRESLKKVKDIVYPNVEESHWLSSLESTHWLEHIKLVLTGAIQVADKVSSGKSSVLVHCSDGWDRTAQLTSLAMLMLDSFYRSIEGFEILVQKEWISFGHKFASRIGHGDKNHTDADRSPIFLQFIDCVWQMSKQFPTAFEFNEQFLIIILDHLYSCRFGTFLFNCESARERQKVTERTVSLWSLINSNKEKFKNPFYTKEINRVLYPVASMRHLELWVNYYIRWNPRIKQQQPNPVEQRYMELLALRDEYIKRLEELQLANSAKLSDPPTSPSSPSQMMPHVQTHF
UniProt P52701: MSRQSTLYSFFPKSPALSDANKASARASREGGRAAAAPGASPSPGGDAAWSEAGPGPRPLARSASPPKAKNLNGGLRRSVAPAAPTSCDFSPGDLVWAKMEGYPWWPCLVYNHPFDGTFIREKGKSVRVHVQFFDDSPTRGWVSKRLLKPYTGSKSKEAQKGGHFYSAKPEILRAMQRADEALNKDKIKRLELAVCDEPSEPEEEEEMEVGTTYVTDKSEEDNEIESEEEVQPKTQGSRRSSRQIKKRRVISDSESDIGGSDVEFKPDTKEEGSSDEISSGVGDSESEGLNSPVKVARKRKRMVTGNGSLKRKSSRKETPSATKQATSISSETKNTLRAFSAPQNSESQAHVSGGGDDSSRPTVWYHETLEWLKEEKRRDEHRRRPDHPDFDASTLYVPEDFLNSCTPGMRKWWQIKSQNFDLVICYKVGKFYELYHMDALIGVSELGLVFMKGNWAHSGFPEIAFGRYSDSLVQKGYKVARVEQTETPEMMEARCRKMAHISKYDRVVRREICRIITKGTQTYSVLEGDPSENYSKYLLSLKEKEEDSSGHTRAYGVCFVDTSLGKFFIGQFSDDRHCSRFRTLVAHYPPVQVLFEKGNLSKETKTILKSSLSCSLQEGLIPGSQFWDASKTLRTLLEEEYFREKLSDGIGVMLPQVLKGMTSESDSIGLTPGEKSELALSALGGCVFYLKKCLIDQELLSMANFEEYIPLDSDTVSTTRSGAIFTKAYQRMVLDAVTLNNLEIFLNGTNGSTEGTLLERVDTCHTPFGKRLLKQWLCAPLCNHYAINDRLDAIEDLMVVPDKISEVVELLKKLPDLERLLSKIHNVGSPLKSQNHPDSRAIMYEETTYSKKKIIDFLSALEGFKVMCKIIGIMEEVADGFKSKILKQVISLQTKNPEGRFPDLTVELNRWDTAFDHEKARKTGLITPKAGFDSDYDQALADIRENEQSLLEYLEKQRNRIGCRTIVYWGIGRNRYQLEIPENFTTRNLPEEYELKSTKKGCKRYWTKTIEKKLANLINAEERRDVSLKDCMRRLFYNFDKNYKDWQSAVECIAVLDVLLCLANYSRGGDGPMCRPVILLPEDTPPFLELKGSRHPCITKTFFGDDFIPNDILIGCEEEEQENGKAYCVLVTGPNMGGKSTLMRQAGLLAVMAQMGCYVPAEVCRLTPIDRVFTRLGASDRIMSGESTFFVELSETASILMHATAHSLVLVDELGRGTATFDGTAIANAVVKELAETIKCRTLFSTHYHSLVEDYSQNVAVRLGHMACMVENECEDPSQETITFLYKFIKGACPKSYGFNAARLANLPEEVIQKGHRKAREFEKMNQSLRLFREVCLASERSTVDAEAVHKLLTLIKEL
UniProt Q9Y3D2: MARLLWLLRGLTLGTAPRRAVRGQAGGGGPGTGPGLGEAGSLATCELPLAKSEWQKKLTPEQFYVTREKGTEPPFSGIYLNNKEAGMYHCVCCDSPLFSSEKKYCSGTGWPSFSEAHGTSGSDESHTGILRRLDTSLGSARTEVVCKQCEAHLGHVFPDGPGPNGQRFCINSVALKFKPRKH
UniProt Q13330: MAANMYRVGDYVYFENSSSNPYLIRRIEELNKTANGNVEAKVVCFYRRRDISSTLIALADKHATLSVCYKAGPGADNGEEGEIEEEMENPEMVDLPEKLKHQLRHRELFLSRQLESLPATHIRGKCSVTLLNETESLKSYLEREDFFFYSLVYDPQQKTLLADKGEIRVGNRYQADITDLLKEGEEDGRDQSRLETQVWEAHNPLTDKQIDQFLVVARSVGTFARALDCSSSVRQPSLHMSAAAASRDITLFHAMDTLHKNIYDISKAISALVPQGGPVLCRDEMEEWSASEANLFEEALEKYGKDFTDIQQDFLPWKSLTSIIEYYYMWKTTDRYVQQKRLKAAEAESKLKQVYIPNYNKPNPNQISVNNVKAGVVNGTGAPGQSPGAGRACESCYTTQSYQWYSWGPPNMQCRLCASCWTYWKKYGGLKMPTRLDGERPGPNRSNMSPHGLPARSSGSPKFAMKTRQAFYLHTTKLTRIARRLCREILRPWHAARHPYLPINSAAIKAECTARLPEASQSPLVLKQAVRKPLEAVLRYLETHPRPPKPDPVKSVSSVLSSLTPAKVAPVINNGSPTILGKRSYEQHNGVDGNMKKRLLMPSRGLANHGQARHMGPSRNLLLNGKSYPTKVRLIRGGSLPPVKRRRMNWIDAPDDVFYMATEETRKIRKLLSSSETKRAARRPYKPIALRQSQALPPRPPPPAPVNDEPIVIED
UniProt Q96DH6: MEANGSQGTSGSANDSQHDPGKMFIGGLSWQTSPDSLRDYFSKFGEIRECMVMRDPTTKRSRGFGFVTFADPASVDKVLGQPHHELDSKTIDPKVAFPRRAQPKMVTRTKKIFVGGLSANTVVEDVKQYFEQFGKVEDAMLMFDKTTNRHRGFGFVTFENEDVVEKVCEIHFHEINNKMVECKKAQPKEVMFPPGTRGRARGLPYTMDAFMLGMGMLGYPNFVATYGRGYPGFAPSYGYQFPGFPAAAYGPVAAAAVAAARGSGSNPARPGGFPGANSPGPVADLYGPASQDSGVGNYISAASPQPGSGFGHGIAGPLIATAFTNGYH
UniProt P82909: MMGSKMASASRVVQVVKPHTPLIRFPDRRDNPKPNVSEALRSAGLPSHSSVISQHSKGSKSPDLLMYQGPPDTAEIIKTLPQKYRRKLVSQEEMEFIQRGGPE
UniProt P13995: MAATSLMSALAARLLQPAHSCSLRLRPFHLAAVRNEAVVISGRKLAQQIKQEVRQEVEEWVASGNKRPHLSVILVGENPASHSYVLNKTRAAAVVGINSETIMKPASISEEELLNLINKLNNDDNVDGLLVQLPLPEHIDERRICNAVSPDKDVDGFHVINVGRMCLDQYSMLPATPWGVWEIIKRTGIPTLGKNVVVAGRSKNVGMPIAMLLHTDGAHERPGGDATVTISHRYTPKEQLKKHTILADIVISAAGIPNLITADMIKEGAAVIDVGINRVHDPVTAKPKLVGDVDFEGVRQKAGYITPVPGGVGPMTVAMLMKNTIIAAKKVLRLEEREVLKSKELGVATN
UniProt Q6P444: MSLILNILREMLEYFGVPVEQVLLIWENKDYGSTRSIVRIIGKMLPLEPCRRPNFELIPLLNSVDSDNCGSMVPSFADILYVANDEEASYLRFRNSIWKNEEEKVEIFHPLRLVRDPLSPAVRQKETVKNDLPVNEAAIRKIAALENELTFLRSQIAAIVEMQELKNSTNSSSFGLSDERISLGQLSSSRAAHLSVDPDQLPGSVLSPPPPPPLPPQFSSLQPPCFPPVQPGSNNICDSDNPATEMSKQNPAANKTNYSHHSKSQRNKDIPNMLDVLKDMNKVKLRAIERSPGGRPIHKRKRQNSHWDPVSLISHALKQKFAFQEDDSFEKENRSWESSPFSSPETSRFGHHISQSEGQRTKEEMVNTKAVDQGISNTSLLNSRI
UniProt P00846: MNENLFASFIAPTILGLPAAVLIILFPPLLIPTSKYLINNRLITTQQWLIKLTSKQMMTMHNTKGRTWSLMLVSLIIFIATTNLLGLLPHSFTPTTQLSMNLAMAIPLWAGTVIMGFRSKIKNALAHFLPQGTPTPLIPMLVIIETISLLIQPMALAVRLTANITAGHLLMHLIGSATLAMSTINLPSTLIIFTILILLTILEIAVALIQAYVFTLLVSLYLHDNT
UniProt Q9NZJ7, whole entry, looked up: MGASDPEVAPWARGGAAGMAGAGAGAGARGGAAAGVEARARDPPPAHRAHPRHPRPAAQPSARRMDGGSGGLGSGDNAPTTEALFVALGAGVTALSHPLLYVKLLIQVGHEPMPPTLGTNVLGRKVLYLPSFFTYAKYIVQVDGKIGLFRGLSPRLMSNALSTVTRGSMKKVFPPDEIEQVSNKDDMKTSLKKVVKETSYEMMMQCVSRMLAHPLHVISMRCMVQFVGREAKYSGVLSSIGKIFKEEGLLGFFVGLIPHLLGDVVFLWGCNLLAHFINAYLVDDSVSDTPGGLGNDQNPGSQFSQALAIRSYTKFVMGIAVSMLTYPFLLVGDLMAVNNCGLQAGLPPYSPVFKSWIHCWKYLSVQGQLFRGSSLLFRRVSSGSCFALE

compound: Cc1cc(Nc2cc(CN3CCOCC3)c3nc(C)c(Cc4ccc(Cl)cc4F)n3n2)n[nH]1 [gandotinib]; assay: log2 fold change, soluble protein after heating vs DMSO (PISA); higher = thermal stabilisation; K562 lysate, 10 uM; active = over 0.2 and 3.5 SD of the protein, either way, in both replicates (recomputed)
In short: (§1)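 Log-two fold change in thermal stability relative to solvent controls is reported from duplicates. For each sample, crude K562 extract from dounce-homogenised pellets in PBS pH 7.4 with 1 mM MgCl2, at 1 mg/mL protein, was treated with 10 μM compound for 30 min. Aliquots heated for 3 min across 48°C-58°C were pooled, brought to 0.5% NP-40 at 4°C and cleared at 21,000xg for 90 min. The supernatant was quantified by TMTpro 16plex LC-MS/MS with channel sums equalised.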

log2 fold change, inactive:
MRPL4 (UniProt Q9BYD3) -0.107
MRPS9 (UniProt P82933) 0.019
MTMR9 (UniProt Q96QG7) 0.066
MRPL28 (UniProt Q13084) -0.246
MRPL41 (UniProt Q8IXM3) 0.041
MRPS22 (UniProt P82650) -0.077
MRPL45 (UniProt Q9BRJ2) 0.027
MRPS18A isoform 2 (UniProt Q9NVS2) -0.164
MRPL50 (UniProt Q8N5N7) 0.036
MTIF2 (UniProt P46199) -0.071
MRS2 (UniProt Q9HD23) -0.042
MT-ND1 (UniProt P03886) 0.061
MRPS30 (UniProt Q9NP92) 0.154
MTM1 (UniProt Q13496) 0.027
MRPS18B (UniProt Q9Y676) 0.031
MRPL32 (UniProt Q9BYC8) 0.036
MRPS5 (UniProt P82675) -0.041
MSH6 (UniProt P52701) -0.087
MSRB2 (UniProt Q9Y3D2) 0.053
MTA1 (UniProt Q13330) -0.067
MSI2 (UniProt Q96DH6) -0.031
MRPL9 (UniProt Q9BYD2) -0.06
MRPS10 (UniProt P82664) 0.032
MRPS36 (UniProt P82909) 0.063
MSN (UniProt P26038) -0.021
MRPS28 (UniProt Q9Y2Q9) -0.06
MTR (UniProt Q99707) -0.009
MTHFD2 (UniProt P13995) -0.061
MRPS31 (UniProt Q92665) -0.006
MTFR2 (UniProt Q6P444) -0.323
MRPL40 (UniProt Q9NQ50) -0.06
MRPL54 (UniProt Q6P161) -0.015
MRPL44 (UniProt Q9H9J2) -0.033
MT-ATP6 (UniProt P00846) 0.047
MT-CO1 (UniProt P00395) 0.088
MRPL58 (UniProt Q14197) -0.009
MTA2 (UniProt O94776) -0.033
MTCH1 (UniProt Q9NZJ7) 0.123
MTX1 (UniProt Q13505) 0.037

compound: Cc1cc(Nc2cc(N3CCN(C)CC3)nc(Sc3ccc(NC(=O)C4CC4)cc3)n2)n[nH]1 [tozasertib]; assay: as above
In short: as §1

log2 fold change, inactive:
MRPL4 (UniProt Q9BYD3) -0.006
MRPS9 (UniProt P82933) 0.008
MTMR9 (UniProt Q96QG7) 0.095
MRPL28 (UniProt Q13084) 0.059
MRPL41 (UniProt Q8IXM3) -0.036
MRPS22 (UniProt P82650) 0.071
MRPL45 (UniProt Q9BRJ2) -0.008
MRPS18A isoform 2 (UniProt Q9NVS2) 0.043
MRPL50 (UniProt Q8N5N7) 0.044
MTIF2 (UniProt P46199) -0.003
MRS2 (UniProt Q9HD23) 0.002
MT-ND1 (UniProt P03886) -0.074
MRPS30 (UniProt Q9NP92) 0.028
MTM1 (UniProt Q13496) -0.04
MRPS18B (UniProt Q9Y676) 0.037
MRPL32 (UniProt Q9BYC8) 0.015
MRPS5 (UniProt P82675) 0.039
MSH6 (UniProt P52701) 0.013
MSRB2 (UniProt Q9Y3D2) 0.078
MTA1 (UniProt Q13330) -0.002
MSI2 (UniProt Q96DH6) 0.01
MRPL9 (UniProt Q9BYD2) 0.052
MRPS10 (UniProt P82664) -0.031
MRPS36 (UniProt P82909) -0.039
MSN (UniProt P26038) 0.008
MRPS28 (UniProt Q9Y2Q9) 0.023
MTR (UniProt Q99707) -0.016
MTHFD2 (UniProt P13995) 0.056
MRPS31 (UniProt Q92665) 0.033
MTFR2 (UniProt Q6P444) -0.095
MRPL40 (UniProt Q9NQ50) -0.045
MRPL54 (UniProt Q6P161) 0.054
MRPL44 (UniProt Q9H9J2) 0.005
MT-ATP6 (UniProt P00846) 0.181
MT-CO1 (UniProt P00395) -0.06
MRPL58 (UniProt Q14197) 0.045
MTA2 (UniProt O94776) -0.016
MTCH1 (UniProt Q9NZJ7) 0.009
MTX1 (UniProt Q13505) 0.022
